Among the data in publication PMC13304329 are binding values, retold here.

Sequences of proteins named here, by UniProt entry; tags and fusion partners are left off.
UniProt Q5S007: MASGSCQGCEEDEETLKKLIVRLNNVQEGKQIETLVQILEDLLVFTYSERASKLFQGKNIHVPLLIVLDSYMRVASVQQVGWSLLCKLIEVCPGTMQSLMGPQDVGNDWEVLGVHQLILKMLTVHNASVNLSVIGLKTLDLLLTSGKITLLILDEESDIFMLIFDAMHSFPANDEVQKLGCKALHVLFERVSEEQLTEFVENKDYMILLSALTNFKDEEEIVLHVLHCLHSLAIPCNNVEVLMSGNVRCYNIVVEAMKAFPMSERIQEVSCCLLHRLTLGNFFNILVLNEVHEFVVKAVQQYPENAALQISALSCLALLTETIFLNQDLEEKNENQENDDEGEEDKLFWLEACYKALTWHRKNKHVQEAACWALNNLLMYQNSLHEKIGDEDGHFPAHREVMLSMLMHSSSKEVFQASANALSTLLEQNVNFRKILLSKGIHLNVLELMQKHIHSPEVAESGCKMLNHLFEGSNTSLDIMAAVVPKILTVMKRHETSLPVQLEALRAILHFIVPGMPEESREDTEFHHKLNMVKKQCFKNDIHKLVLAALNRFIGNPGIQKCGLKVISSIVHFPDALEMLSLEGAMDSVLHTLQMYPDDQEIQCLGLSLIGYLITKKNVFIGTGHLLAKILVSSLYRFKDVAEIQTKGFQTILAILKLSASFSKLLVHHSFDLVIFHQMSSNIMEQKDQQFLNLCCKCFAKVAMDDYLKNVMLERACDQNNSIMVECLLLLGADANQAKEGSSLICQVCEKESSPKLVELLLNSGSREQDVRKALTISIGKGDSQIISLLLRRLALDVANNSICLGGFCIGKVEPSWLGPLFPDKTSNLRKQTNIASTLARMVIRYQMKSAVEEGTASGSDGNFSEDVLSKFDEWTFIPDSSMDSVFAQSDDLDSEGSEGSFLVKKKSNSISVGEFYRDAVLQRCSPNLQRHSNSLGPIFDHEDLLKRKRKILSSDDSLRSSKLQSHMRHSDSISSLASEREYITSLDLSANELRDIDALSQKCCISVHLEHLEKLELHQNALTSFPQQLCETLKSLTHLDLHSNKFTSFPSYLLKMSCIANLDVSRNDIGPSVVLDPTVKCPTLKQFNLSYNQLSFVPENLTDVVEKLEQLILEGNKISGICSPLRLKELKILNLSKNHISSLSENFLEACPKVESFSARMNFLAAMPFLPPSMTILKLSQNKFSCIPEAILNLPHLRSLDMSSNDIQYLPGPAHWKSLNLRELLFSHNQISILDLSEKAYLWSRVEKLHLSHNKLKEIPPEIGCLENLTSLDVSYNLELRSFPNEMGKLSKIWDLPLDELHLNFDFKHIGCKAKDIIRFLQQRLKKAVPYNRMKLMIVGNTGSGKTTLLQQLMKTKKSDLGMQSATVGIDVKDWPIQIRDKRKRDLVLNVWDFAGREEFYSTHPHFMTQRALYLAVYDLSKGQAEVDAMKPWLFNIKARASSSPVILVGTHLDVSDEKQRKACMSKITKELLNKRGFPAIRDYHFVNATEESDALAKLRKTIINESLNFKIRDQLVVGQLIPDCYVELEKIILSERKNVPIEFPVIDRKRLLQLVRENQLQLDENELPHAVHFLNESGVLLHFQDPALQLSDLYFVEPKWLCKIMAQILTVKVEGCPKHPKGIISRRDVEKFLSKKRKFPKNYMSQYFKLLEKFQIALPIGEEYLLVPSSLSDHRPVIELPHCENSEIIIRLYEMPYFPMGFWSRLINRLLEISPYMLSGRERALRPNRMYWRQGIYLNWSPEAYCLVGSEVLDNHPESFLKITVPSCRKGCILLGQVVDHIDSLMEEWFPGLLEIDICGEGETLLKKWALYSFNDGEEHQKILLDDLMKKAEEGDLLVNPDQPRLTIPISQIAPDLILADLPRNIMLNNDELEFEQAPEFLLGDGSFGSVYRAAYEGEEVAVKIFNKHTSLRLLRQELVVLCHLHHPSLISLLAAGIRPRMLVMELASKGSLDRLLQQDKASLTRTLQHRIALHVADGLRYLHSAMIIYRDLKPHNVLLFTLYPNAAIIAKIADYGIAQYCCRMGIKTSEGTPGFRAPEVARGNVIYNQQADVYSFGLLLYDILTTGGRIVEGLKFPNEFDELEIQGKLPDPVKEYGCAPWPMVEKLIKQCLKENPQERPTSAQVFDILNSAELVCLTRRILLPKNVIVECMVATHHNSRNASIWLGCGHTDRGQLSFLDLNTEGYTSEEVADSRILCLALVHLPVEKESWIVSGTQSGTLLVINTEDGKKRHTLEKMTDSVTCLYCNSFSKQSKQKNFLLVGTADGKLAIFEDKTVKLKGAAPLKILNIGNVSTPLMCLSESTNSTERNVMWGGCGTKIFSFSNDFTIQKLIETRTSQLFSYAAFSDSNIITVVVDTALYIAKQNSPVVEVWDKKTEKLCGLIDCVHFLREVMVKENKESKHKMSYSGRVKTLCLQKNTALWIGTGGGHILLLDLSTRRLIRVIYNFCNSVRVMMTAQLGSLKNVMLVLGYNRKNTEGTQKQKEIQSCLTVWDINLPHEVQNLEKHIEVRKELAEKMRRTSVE
UniProt Q8NEY1: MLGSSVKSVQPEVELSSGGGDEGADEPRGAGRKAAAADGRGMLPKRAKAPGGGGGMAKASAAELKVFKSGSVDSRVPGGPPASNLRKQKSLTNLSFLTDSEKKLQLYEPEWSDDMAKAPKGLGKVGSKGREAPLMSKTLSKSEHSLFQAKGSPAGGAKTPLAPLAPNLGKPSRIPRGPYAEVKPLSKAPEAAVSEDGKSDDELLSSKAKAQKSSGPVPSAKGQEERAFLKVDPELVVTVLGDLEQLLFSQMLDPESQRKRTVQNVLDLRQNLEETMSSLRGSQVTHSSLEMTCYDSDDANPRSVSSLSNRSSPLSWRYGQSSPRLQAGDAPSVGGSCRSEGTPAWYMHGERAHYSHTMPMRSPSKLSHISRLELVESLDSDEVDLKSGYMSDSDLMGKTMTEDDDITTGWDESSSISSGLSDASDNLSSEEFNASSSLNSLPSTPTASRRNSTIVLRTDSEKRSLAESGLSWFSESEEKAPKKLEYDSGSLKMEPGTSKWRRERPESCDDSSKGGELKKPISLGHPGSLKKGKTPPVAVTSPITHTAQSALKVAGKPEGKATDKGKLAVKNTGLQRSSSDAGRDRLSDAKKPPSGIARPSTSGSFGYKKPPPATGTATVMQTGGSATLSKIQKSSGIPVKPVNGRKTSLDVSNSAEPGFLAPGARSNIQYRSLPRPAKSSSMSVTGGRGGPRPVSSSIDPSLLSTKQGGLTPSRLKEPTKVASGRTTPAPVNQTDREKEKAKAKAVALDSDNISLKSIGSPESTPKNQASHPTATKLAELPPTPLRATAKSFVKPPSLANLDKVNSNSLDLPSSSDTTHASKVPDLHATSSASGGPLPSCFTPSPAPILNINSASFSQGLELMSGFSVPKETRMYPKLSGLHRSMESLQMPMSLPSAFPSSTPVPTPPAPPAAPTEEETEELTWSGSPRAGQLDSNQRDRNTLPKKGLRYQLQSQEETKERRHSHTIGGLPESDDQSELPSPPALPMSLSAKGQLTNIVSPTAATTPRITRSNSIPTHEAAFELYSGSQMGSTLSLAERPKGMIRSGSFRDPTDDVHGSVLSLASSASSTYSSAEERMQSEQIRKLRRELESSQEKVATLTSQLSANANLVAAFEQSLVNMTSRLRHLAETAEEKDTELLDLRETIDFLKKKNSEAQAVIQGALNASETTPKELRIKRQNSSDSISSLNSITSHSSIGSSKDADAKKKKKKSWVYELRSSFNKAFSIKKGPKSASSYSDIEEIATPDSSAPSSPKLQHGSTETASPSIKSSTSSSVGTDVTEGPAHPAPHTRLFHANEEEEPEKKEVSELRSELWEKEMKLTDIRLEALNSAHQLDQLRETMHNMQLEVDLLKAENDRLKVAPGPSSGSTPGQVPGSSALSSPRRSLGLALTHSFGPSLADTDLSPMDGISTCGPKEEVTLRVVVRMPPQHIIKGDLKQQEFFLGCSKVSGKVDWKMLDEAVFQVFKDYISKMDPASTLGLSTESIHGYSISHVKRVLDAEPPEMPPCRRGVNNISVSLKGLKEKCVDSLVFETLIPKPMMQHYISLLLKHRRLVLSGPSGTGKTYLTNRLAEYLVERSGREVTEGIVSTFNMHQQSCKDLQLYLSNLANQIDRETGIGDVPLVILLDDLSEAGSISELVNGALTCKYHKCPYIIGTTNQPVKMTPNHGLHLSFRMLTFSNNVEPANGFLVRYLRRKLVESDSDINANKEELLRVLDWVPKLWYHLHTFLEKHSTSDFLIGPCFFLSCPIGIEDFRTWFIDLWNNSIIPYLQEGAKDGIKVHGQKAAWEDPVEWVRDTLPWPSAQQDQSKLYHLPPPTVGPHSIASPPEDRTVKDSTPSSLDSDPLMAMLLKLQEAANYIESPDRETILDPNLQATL
UniProt O15169: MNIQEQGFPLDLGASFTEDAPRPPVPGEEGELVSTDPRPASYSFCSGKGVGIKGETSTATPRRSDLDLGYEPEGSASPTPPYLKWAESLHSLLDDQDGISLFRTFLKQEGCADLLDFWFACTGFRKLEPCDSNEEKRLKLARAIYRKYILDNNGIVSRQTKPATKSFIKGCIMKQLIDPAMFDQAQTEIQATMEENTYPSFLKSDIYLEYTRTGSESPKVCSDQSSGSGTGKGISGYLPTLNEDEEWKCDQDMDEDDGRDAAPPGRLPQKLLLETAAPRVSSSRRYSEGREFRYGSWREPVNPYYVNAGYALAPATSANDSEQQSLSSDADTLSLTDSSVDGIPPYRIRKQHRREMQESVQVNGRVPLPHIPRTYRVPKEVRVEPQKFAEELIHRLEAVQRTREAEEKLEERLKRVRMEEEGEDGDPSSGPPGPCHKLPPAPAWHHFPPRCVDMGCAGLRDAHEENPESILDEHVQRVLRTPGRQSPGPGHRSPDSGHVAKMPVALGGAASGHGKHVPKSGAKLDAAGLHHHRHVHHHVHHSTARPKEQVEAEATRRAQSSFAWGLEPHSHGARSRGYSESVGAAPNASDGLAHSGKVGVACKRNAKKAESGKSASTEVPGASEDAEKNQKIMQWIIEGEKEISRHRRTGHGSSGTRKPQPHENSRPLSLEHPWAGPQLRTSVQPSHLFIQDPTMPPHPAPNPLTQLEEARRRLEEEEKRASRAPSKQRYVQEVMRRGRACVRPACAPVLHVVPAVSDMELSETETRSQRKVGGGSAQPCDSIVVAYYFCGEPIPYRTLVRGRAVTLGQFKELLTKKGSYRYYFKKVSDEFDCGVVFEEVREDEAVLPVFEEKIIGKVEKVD
UniProt Q96RS0: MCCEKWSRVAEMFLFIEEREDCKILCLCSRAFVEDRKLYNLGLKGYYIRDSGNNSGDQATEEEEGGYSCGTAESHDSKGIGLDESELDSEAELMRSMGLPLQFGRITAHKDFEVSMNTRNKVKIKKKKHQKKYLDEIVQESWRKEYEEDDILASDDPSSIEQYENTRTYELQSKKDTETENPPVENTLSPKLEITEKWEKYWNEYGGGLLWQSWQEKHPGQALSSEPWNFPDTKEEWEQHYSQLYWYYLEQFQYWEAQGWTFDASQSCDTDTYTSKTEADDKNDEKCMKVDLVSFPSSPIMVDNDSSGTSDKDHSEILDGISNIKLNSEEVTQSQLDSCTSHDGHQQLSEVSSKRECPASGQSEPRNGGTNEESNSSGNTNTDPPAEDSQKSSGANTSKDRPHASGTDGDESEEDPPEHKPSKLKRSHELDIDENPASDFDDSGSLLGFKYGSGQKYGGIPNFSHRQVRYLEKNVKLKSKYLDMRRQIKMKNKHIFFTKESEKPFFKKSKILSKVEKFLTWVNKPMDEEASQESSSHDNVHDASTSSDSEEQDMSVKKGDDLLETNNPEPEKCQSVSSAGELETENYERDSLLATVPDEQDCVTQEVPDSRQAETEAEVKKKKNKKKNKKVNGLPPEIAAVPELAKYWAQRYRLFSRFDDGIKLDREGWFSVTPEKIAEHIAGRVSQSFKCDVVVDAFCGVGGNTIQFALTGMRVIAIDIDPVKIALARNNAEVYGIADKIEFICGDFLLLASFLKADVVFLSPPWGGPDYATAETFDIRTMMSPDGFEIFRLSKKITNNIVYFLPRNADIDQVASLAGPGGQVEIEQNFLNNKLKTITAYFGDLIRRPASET

These are yes or no findings as the source states them, for the method shown. In cells and extracts the contact can be indirect. A yes stands for co-enrichment or nearness to the bait. Other partners may have been found. For some of these results: Sequences can lack the tags named with a protein.

First the molecules themselves.
B1: DCUN1D4 (protein, UniProt Q92564 1-292)
chain: MHSDAAAVNFQLNSHLSTLANIHKIYHTLNKLNLTEDIGQDDHQTGSLRSCSSSDCFNKVMPPRKKRRPASGDDLSAKKSRHDSMYRKYDSTRIKTEEEAFSSKRCLEWFYEYAGTDDVVGPEGMEKFCEDIGVEPENVVMLVLAWKLDAQNMGYFTLQEWLKGMTSLQCDTTEKLRNTLDYLRSFLNDSTNFKLIYRYAFDFAREKDQRSLDINTAKCMLGLLLGKIWPLFPVFHQFLEQSKYKVINKDQWCNVLEFSRTINLDLSNYDEDGAWPVLLDEFVEWYKDKQMS
B2: SNAP47 (protein, UniProt Q5SQN1 1-464)
chain: MRAARRGLHCAGAERPRRRGRLWDSSGVPQRQKRPGPWRTQTQEQMSRDVCIHTWPCTYYLEPKRRWVTGQLSLTSLSLRFMTDSTGEILVSFPLSSIVEIKKEASHFIFSSITILEKGHAKHWFSSLRPSRNVVFSIIEHFWRELLLSQPGAVADASVPRTRGEELTGLMAGSQKRLEDTARVLHHQGQQLDSVMRGLDKMESDLEVADRLLTELESPAWWPFSSKLWKTPPETKPREDVSMTSCEPFGKEGILIKIPAVISHRTESHVKPGRLTVLVSGLEIHDSSSLLMHRFEREDVDDIKVHSPYEISIRQRFIGKPDMAYRLISAKMPEVIPILEVQFSKKMELLEDALVLRSARTSSPAEKSCSVWHAASGLMGRTLHREPPAGDQEGTALHLQTSLPALSEADTQELTQILRRMKGLALEAESELERQDEALDGVAAAVDRATLTIDKHNRRMKRLT
B3: Centrosomal protein of 85 kDa (protein, UniProt Q6P2H3 1-762)
chain: MAMQEKYPTEGISHVTSPSSDVIQKGSSLGTEWQTPVISEPFRSRFSRCSSVADSGDTAIGTSCSDIAEDFCSSSGSPPFQPIKSHVTIPTAHVMPSTLGTSPAKPNSTPVGPSSSKLPLSGLAESVGMTRNGDLGAMKHSPGLSRDLMYFSGATGENGIEQSWFPAVGHERQEEARKFDIPSMESTLNQSAMMETLYSDPHHRVRFHNPRTSTSKELYRVLPEAKKAPGSGAVFERNGPHSNSSGVLPLGLQPAPGLSKPLPSQVWQPSPDTWHPREQSCELSTCRQQLELIRLQMEQMQLQNGAICHHPAAFGPSLPILEPAQWISILNSNEHLLKEKELLIDKQRKHISQLEQKVRESELQVHSALLGRPAPFGDVCLLRLQELQRENTFLRAQFAQKTEALSREKIDLEKKLSASEVEVQLIRESLKVALQKHSEEVKKQEERVKGRDKHINNLKKKCQKESEQNREKQQRIETLERYLADLPTLEDHQKQSQQLKDSELKSTELQEKVTELESLLEETQAICREKEIQLESLRQREAEFSSAGHSLQDKQSVEETSGEGPEVEMESWQKRYDSLQKIVEKQQQKMDQLRSQVQSLEQEVAQEEGTSQALREEAQRRDSALQQLRTAVKELSVQNQDLIEKNLTLQEHLRQAQPGSPPSPDTAQLALELHQELASCLQDLQAVCSIVTQRAQGHDPNLSLLLGIHSAQHPETQLDLQKPDVIKRKLEEVQQLRRDIEDLRTTMSDRYAQDMGENCVTQ
B4: DVL1 (protein, UniProt O14640 1-695)
chain: MAETKIIYHMDEEETPYLVKLPVAPERVTLADFKNVLSNRPVHAYKFFFKSMDQDFGVVKEEIFDDNAKLPCFNGRVVSWLVLAEGAHSDAGSQGTDSHTDLPPPLERTGGIGDSRPPSFHPNVASSRDGMDNETGTESMVSHRRERARRRNREEAARTNGHPRGDRRRDVGLPPDSASTALSSELESSSFVDSDEDGSTSRLSSSTEQSTSSRLIRKHKRRRRKQRLRQADRASSFSSITDSTMSLNIVTVTLNMERHHFLGISIVGQSNDRGDGGIYIGSIMKGGAVAADGRIEPGDMLLQVNDVNFENMSNDDAVRVLREIVSQTGPISLTVAKCWDPTPRSYFTVPRADPVRPIDPAAWLSHTAALTGALPRYGTSPCSSAVTRTSSSSLTSSVPGAPQLEEAPLTVKSDMSAVVRVMQLPDSGLEIRDRMWLKITIANAVIGADVVDWLYTHVEGFKERREARKYASSLLKHGFLRHTVNKITFSEQCYYVFGDLCSNLATLNLNSGSSGTSDQDTLAPLPHPAAPWPLGQGYPYQYPGPPPCFPPAYQDPGFSYGSGSTGSQQSEGSKSSGSTRSSRRAPGREKERRAAGAGGSGSESDHTAPSGVGSSWRERPAGQLSRGSSPRSQASATAPGLPPPHPTTKAYTVVGGPPGGPPVRELAAVPPELTGSRQSFQKAMGNPCEFFVDIM
B5: Extended synaptotagmin-1 (protein, UniProt Q9BSJ8 1-1104)
chain: MERSPGEGPSPSPMDQPSAPSDPTDQPPAAHAKPDPGSGGQPAGPGAAGEALAVLTSFGRRLLVLIPVYLAGAVGLSVGFVLFGLALYLGWRRVRDEKERSLRAARQLLDDEEQLTAKTLYMSHRELPAWVSFPDVEKAEWLNKIVAQVWPFLGQYMEKLLAETVAPAVRGSNPHLQTFTFTRVELGEKPLRIIGVKVHPGQRKEQILLDLNISYVGDVQIDVEVKKYFCKAGVKGMQLHGVLRVILEPLIGDLPFVGAVSMFFIRRPTLDINWTGMTNLLDIPGLSSLSDTMIMDSIAAFLVLPNRLLVPLVPDLQDVAQLRSPLPRGIIRIHLLAARGLSSKDKYVKGLIEGKSDPYALVRLGTQTFCSRVIDEELNPQWGETYEVMVHEVPGQEIEVEVFDKDPDKDDFLGRMKLDVGKVLQASVLDDWFPLQGGQGQVHLRLEWLSLLSDAEKLEQVLQWNWGVSSRPDPPSAAILVVYLDRAQDLPLKKGNKEPNPMVQLSIQDVTQESKAVYSTNCPVWEEAFRFFLQDPQSQELDVQVKDDSRALTLGALTLPLARLLTAPELILDQWFQLSSSGPNSRLYMKLVMRILYLDSSEICFPTVPGCPGAWDVDSENPQRGSSVDAPPRPCHTTPDSQFGTEHVLRIHVLEAQDLIAKDRFLGGLVKGKSDPYVKLKLAGRSFRSHVVREDLNPRWNEVFEVIVTSVPGQELEVEVFDKDLDKDDFLGRCKVRLTTVLNSGFLDEWLTLEDVPSGRLHLRLERLTPRPTAAELEEVLQVNSLIQTQKSAELAAALLSIYMERAEDLPLRKGTKHLSPYATLTVGDSSHKTKTISQTSAPVWDESASFLIRKPHTESLELQVRGEGTGVLGSLSLPLSELLVADQLCLDRWFTLSSGQGQVLLRAQLGILVSQHSGVEAHSHSYSHSSSSLSEEPELSGGPPHITSSAPELRQRLTHVDSPLEAPAGPLGQVKLTLWYYSEERKLVSIVHGCRSLRQNGRDPPDPYVSLLLLPDKNRGTKRRTSQKKRTLSPEFNERFEWELPLDEAQRRKLDVSVKSNSSFMSRERELLGKVQLDLAETDLSQGVARWYDLMDNKDKGSS

The first test deals with LRRK2 with an N-terminal BioID tag (BioID1-LRRK2, BioID2-LRRK2 or miniTurbo-LRRK2; pooled 'BioID set') (human) (UniProt Q5S007). The experiment in a line: proximity labelling; BioID1-, BioID2- or miniTurbo-LRRK2 transiently expressed in HEK293T against the tag-only control; 50 uM biotin (up to 16 h; miniTurbo 2 h after overnight starvation); Strep-Tactin enrichment, LC-MSMS; SAINTexpress and CRAPome filter, hits of the three tags unified ('BioID set').
Consider B1, for which the binding entry was “binds”.

B2: the binding entry is “binds”. Take B3: the binding result was “binds”.

Regarding B4, the binding entry is “binds”.

Another test shares this target. The test is described as above. The source holds these as a separate data set.
Regarding ANAPC5 (from UniProt Q9UJX4 1-755), the binding result was “binds”. In the case of “Neuron navigator 1 (from UniProt Q8NEY1 1-1877)”, the binding entry was “binds”. For “Protein FAM193A (from UniProt P78312 1-1515)”, the binding result was “binds”. As to DVL2 (from UniProt O14641 1-736), the binding result is reported as “binds”. Still for that read-out and setting: in the case of AXIN1 (from UniProt O15169 1-862) it was “binds”; in that of MON2 (from UniProt Q7Z3U7 1-1717), “binds”. For the molecule “Kinesin-like protein KIF16B (from UniProt Q96L93 1-1317)”, the binding entry was “binds”.

Consider “Trimethylguanosine synthase (from UniProt Q96RS0 1-853) (enzyme)”, for which the binding entry is listed as “binds”.

The target of a further test is miniTurbo-LRRK2 (human) (UniProt Q5S007). The experiment in a line: proximity labelling; mT-LRRK2 co-expressed with HA-RAB29 against empty pcDNA3.0 vector; biotin labelling, Strep-Tactin enrichment, LC-MSMS, LFQ with FDR-controlled t test.
With B5, the binding entry was “binds”.
